# Reference: US20180236071A1 (ACTICOR BIOTECH, published 2018)
# No constants are given. Whether binding was seen depends on the method and setting. Some results given as binding are weak or reduced against the parent protein; the word gives no strength.
# T1: Soluble GPVI-Fc (human, UniProt Q9HCN6 21-269)
# T1 construct: also called soluble human GPVI
# T1 chain: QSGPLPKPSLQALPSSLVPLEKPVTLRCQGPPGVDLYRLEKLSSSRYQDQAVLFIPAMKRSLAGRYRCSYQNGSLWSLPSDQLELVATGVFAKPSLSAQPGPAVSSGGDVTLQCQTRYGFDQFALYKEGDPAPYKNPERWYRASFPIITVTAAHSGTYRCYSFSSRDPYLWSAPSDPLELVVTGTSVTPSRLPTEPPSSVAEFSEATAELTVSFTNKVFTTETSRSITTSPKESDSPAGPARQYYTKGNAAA
# Tests used:
# Soluble GPVI-Fc [1] = target: T1, Soluble GPVI-Fc; test: SPR, BIAcore 2000
# Soluble GPVI-Fc [2] = target: T1, Soluble GPVI-Fc; test: ELISA on plate-coated GPVI-Fc, bound Fab detected, absorbance at 485 nm
binding (Soluble GPVI-Fc [1]),binding (Soluble GPVI-Fc [2]),Binder
binds,binds,"ACT006 antibody (humanized Fab fragment) (Fab, V domains shown) VH: QVQLVQSGAEVKKPGASVKVSCKASGYTFTSYNMHWVRQAPGQGLEWMGGIYPGNGDTSYNQKFQGRVTMTRDTSTSTVYMELSSLRSEDTAVYYCARGTVVGDWYFDVWGQGTLVTVSS VL: DIQMTQSPSSLSASVGDRVTITCSASQSLENSNGNTYLNWYQQKPGKAPKLLIYRVSNRFSGVPSRFSGSGSGTDFTLTISSLQPEDFATYYCLQLTHVPWTFGQGTKVEIKR"
binds,binds,"ACT017 antibody (humanized Fab fragment) (Fab, V domains shown, Coupled to Alexa488 for the flow cytometry assay; also called ACT17; humanized Fab ACT017) VH: QVQLVQSGAEVKKPGASVKVSCKASGYTFTSYNMHWVRQAPGQGLEWMGGIYPGNGDTSYNQKFQGRVTMTRDTSTSTVYMELSSLRSEDTAVYYCARGTVVGDWYFDVWGQGTLVTVSS VL: DIQMTQSPSSLSASVGDRVTITCRSSQSLENSNGNTYLNWYQQKPGKAPKLLIYRVSNRFSGVPSRFSGSGSGTDFTFTISSLQPEDIATYYCLQLTHVPWTFGQGTKVEITR"
